PubChem BioAssay AID1508597 | Cure First, 2020
Purpose: 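Survival screen with siRNA in ovarian cancer cells derived from patients, with or without rucaparib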 (primary screen). Cell system: human ovarian carcinoma lines grown from tumours: OCI-P5x (papillary serous) and OCI-C5x (clear cell). Knock-down reagent: siRNA pool against human genes, 1.25 pmol siRNA per well. Timing: 72 h or 96 h, depending on the cell culture. Treatment: rucaparib 20 µM (about IC30) or vehicle, present until read-out. Rucaparib or vehicle: Vehicle. Cell line: OCI-C5x (clear cell). Detection: 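ATP luminescence measured at 72 or 96 h according to the culture, then normalised and expressed as percent viability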. Scale: viability, normalised: higher = more viable cells remaining. Hit rule: 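Active when normalised viability falls below 80 percent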. Calls: active = viability under 80%; inactive = viability 80% or more.
This is an unselected part of the about 2,100 reagents, in one setting of the screen. 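Calls flag viability under 80% in either arm, not effects specific to rucaparib; the reference for percent is not stated.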 A reagent listed more than once was tested more than once; the source does not tell the runs apart. Not stated in the record: the 100% reference.

gene knocked down | technical replicate | viability, normalised (%) | Call
TMPO (GeneID 7112) | 1 | 52.4 | active
TMPO (GeneID 7112) | 2 | 58.6 | active
TMPO (GeneID 7112) | 3 | 57 | active
ELP4 (GeneID 26610) | 1 | 36.6 | active
ELP4 (GeneID 26610) | 2 | 73.1 | active
ELP4 (GeneID 26610) | 3 | 52.9 | active
TK1 (GeneID 7083) | 1 | 66.7 | active
TK1 (GeneID 7083) | 1 | 55.9 | active
TK1 (GeneID 7083) | 2 | 67.1 | active
TK1 (GeneID 7083) | 2 | 52.4 | active
TK1 (GeneID 7083) | 3 | 48.2 | active
TK1 (GeneID 7083) | 3 | 51.6 | active
POLR3K (GeneID 51728) | 1 | 37.8 | active
POLR3K (GeneID 51728) | 2 | 52.2 | active
POLR3K (GeneID 51728) | 3 | 29 | active
DDX18 (GeneID 8886) | 1 | 37.6 | active
DDX18 (GeneID 8886) | 2 | 52.3 | active
DDX18 (GeneID 8886) | 3 | 55.6 | active
SNRNP200 (GeneID 23020) | 1 | 37.6 | active
SNRNP200 (GeneID 23020) | 1 | 26.9 | active
SNRNP200 (GeneID 23020) | 2 | 27 | active
SNRNP200 (GeneID 23020) | 2 | 31.2 | active
SNRNP200 (GeneID 23020) | 3 | 29.8 | active
SNRNP200 (GeneID 23020) | 3 | 28.7 | active
CDK10 (GeneID 8558) | 1 | 66.9 | active
CDK10 (GeneID 8558) | 2 | 77.7 | active
CDK10 (GeneID 8558) | 3 | 47.1 | active
RAD50 (GeneID 10111) | 1 | 47.7 | active
RAD50 (GeneID 10111) | 2 | 39.6 | active
RAD50 (GeneID 10111) | 3 | 48.3 | active
SOX2 (GeneID 6657) | 1 | 35.9 | active
SOX2 (GeneID 6657) | 1 | 52.4 | active
SOX2 (GeneID 6657) | 2 | 38.8 | active
SOX2 (GeneID 6657) | 2 | 43.6 | active
SOX2 (GeneID 6657) | 3 | 50.9 | active
SOX2 (GeneID 6657) | 3 | 51.5 | active
KDM4D (GeneID 55693) | 1 | 36.9 | active
KDM4D (GeneID 55693) | 2 | 32.5 | active
KDM4D (GeneID 55693) | 3 | 31.2 | active
CETN2 (GeneID 1069) | 1 | 38.6 | active
CETN2 (GeneID 1069) | 2 | 43 | active
CETN2 (GeneID 1069) | 3 | 41.5 | active
TGM3 (GeneID 7053) | 1 | 48 | active
TGM3 (GeneID 7053) | 2 | 61 | active
TGM3 (GeneID 7053) | 3 | 57.2 | active
CYLD (GeneID 1540) | 1 | 43.5 | active
CYLD (GeneID 1540) | 2 | 70 | active
CYLD (GeneID 1540) | 3 | 54.6 | active
MAPKAPK2 (GeneID 9261) | 1 | 61 | active
MAPKAPK2 (GeneID 9261) | 2 | 47 | active
MAPKAPK2 (GeneID 9261) | 3 | 40.2 | active
ZNF830 (GeneID 91603) | 1 | 94.5 | inactive
ZNF830 (GeneID 91603) | 2 | 48 | active
ZNF830 (GeneID 91603) | 3 | 50.5 | active
BCL2 (GeneID 596) | 1 | 52.7 | active
BCL2 (GeneID 596) | 2 | 64.8 | active
BCL2 (GeneID 596) | 3 | 62.6 | active
